Our source for the binding values is publication PMC9640980, “Pharmacological evaluation of enantiomerically separated positive allosteric modulators of cannabinoid 1 receptor, GAT591 and GAT593” (Frontiers in Pharmacology, 2022).

Chains of the proteins cited; added tags and fusions are not shown.
UniProt P21554: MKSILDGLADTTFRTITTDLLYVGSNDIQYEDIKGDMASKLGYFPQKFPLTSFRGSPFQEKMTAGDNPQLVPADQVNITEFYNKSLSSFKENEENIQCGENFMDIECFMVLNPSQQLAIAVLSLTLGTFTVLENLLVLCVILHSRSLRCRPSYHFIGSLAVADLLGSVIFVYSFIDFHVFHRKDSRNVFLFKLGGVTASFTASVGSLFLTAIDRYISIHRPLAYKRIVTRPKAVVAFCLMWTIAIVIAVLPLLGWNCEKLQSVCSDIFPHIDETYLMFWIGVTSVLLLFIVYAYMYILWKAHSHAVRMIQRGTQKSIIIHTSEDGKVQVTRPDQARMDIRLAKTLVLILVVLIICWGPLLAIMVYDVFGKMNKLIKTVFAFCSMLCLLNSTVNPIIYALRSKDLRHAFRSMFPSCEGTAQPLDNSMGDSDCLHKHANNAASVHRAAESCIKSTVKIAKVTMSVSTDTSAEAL
UniProt P32121: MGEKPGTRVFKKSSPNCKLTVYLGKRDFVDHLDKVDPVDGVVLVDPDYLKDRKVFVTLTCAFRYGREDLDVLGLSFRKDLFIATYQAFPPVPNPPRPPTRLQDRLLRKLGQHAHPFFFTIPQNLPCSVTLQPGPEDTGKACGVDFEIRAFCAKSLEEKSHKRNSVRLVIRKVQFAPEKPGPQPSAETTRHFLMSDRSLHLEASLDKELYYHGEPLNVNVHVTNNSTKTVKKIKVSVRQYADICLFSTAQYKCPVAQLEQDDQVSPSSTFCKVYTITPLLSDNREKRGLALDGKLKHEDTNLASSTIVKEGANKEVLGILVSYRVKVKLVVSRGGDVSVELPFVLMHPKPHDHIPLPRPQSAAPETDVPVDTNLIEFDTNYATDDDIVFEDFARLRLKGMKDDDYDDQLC

Experiment [1] concerns the target human type 1 cannabinoid receptor (hCB1R) (human) (UniProt P21554). In words: split reporter; PathHunter βarrestin2 recruitment assay (DiscoveRx) in hCB1R CHO-K1 cells; cells treated 90 min with 0.10 nM–10 µM compounds (CP55,940, GAT1665, GAT1667, GAT1666) ±100 nM CP55,940; chemiluminescence; data as % CP55,940 max. On the technique in general: Recruitment of arrestin is a read-out of receptor activation apart from second messengers.

Experiment [2] has the same target. In words: condition: only cells treated with GAT1664 (0.10 nM–10 µM) as the activating compound; split reporter; PathHunter βarrestin2 recruitment assay (DiscoveRx) in hCB1R CHO-K1 cells; cells treated 90 min with 0.10 nM–10 µM GAT1664; chemiluminescence.

No constants are given. Whether binding was seen depends on the method and setting. In cells and extracts the contact can be indirect. Some results given as binding are weak or reduced against the parent protein; the word gives no strength.

Take βarrestin2 (from UniProt P32121 1-409): the binding result in experiment [1] is reported as “binds”; in experiment [2] it was “no binding”.
